From patent publication US10195287B2 (Chemical & Biopharmaceutical Laboratories of Patras S.A., priority 2013, dated 2019) come the findings set out here.

Series [1] can be described thus: general procedure: peptide synthesis; H-Gly-O-CTC resin; DIC/HOBt; HOSu/EDAC for fragment condensation. The settings on record: whole synthesis, scale 1.0 mmol.
Series [2] can be described thus: general procedure: peptide synthesis; H-Arg(Pbf)-O-CTC resin; DIC/HOBt; HOSu/EDAC for fragment condensation. The settings on record: whole synthesis, scale 1.0 mmol.
Series [3] is described as follows: general procedure: peptide synthesis; H-Lys(MMT resin)-OTrt; DIC/HOBt; HOSu/EDAC for fragment condensation. The settings on record: whole synthesis, scale 1.0 mmol.
The nature of series [4]: general procedure: peptide synthesis; 4-methyl-benzhydryl resin; DIC/HOBt; HOSu/EDAC for fragment condensation. As to conditions: whole synthesis.

Take “Partially Protected and Carboxyl Group Activated Insulin Gly(A21)-Chain of Structure 6”: in series [1], the crude mass worked out at 3.04 g and the crude yield is recorded as 90.0%.

Take “Selectively at the Lys^29 Deprotected B(Arg31), B(Arg32) Human Insulin B Chain of Structure 8”: in series [2], the crude mass amounted to 5.61 g and the crude yield was 90.2%.

In series [3], “Selectively at the Lys^29 Side Chain Deprotected des-Thr^30 Human Insulin of Structure 12” came in with a crude mass of 4.93 g and a crude yield of 94.1%.

Take “Single Chain Insulin Glu(A21), des Thr(B30) where the Insulin Chains are Connected Through the Side Chains of Glu(A21) and Lys(B29) and the Oligoethylen Glycol Modifier”: the isolated mass in series [4] is listed as 82.4 mg. In addition, the isolated yield in series [4] (scale of the general procedure 1.0 mmol) stood at 14.29%.
